The experiment addresses CD19 antigen (analyte of the Octet affinity assay) (UniProt P15391). The experiment in a line: BLI (Octet), scFv-rFc on biosensor, CD19 antigen 400 to 12.5 nM in solution. Background: In BLI a coated tip is dipped into the sample, and binding shifts an interference pattern.

The chains behind the UniProt entries cited, without tags or fusion partners. Residues count along the entry.
UniProt P15391, residues 20-291: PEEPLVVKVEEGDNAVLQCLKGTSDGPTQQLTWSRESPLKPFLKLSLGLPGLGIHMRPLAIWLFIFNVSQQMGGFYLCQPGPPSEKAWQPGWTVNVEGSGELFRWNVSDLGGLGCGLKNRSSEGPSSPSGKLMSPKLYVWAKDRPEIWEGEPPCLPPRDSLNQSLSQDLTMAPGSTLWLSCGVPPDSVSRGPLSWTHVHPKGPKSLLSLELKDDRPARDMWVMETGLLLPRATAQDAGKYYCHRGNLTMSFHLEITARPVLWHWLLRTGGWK

Results are given in words; binding and its absence hold for the method and conditions named. Some entries that bind do so weakly or less than the wild type.

B1: #78 anti-CD19 scFv-rFc (Fc fusion, not shown: a dimerising Fc or GST; small tags and cut ends)
scFv: QAVLTQPPSVSEAPRQRVTISCSGSSSNIGNNAVSWYQQLPGKAPKLLIYYDDLLPSGVSDRFSGSKSGTSASLAISGLQSEDEADYYCAAWDDSLNGWVFGGGTKVTVLGSRGGGGSGGGGSGGGGSLEEVQLVQSGAEVKKPGESLKISCKGSGYSFTSYWIGWVRQMPGKGLEWMGIIYPGDSDTRYSPSFQGQVTISADKSISTAYLQWSSLKASDTAMYYCARLSYSWSSWYWDFWGQGTLVTVSS
B1: the binding result was “binds”.

B2: #62 anti-CD19 scFv-rFc (Fc fusion, not shown: a dimerising Fc or GST; small tags and cut ends)
scFv: QSVVTQPPSVSGAPGQRVTISCTGSSSNIGAGYDVHWYQQLPGTAPKLLIYENTNRPSGVPDRFSGSKSGTSASLAITGLQAEDEADYYCQSYDSSLSGWRVFGGGTKLTVLGSRGGGGSGGGGSGGGGSLEMAEVQLVQSGAEVKKPGESLKISCKGSGYSFTNSWIGWVRQMPGKGLEWMGLIYPDDSDTRYSPSFQGQVTISADSAINTAYLQWSSLKASDTAMYYCARQSTYIYGGYYDTWGQGTLVTVSS
On to B2, for which the binding entry was “binds”.

Source of the values: patent US20220220200A1.
